# Test results: patent US20240350544A1 (Takeda / Millennium, published 2024)
# The chains behind the UniProt entries cited, without tags or fusion partners. Where a name states a change or a piece, a line headed by the entry shows the natural chain unless it says otherwise.
# UniProt Q02223: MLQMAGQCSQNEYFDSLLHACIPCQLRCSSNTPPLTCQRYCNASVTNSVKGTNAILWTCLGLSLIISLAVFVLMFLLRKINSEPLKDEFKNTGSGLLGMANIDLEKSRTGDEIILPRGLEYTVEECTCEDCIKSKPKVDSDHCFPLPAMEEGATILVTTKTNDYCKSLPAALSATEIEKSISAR
# Substitutions are numbered along the chain they refer to. These are yes or no findings as the source states them, for the method shown. Some binding calls cover weakened binding; strength is not graded here.
# B1: Ab 2, lead anti-BCMA clone of Table 4 (antibody, V domains shown)
# VH: QITLRESGGDVVQPGRSLRLSCAASGFTFSSYAIHWVRQAPGKGLEWVAVTWHDGSNKYYAESVMGRFTISRDNSKNTLYLHMNSLRAEDTGVYYCARAKFGEPQYFQHWGQGTLVTVSS
# VL: DIVMTQSPSFLSASVGDRVTITCRASQGINNYLAWYQQKPGIAPKLLIYAASTLQSGVPSRFGGSGSGTEFTLTISSLQPEDFATYYCQQLKSYPFTFGPGTKVEIK
# B2: Ab 3, lead anti-BCMA clone of Table 4 (antibody, V domains shown)
# VH: B1 VH with Q1E, I2V, T3Q, R5V, L115T
# VL: B1 VL with N30S, N31S, I42K, G63S, K92N, E105D
# Molecular target: human BCMA protein (Octet; construct not stated) (human) (UniProt Q02223)
# Test: Octet (BLI), human BCMA
row,Binder,binding
1,B1,binds
2,B2,binds
